Measured data: PubChem BioAssay AID652272 (Drosophila RNAi Screening Center, 2013)
Screen: 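Genes whose knock-down decreases or increases Hedgehog reporter output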 (primary screen). Cell system: Drosophila clone 8 (Cl8) cells. Reagent: long dsRNA against Drosophila genes. Measurement: 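Firefly light from a Hedgehog-responsive ptc promoter reporter and Renilla reference light, both read on a plate reader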. Reading the numbers: firefly Hh reporter signal: higher = more ptc reporter light; Renilla reference signal: higher = more Renilla control light. Call rule: 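Hit when the z-score averaged over two replicates is under -2 or over +3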. Calls: active = hit: reporter lowered or raised; inactive = not a hit.
The deposit covers about 21,000 reagents; below is an unselected part of those that have a named target and a result. Of all reagents, 503 (2.4%) got an active call. 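Raw plate light values, not normalised; calls rest on replicate z-scores that were not deposited; hits include reporter decreases as well as increases.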 A plus sign joins genes that one reagent is predicted to hit. Not stated in the record: the amount of reagent, the time to read-out.

gene	DRSC id	firefly Hh reporter signal, replicate 1	firefly Hh reporter signal, replicate 2	firefly Hh reporter signal, replicate 3	Renilla reference signal, replicate 1	Renilla reference signal, replicate 2	activity call
ras (GeneID 43873)	DRSC18825	88269	94038		2005	1891	inactive
cona (GeneID 42213)	DRSC16281	6.35e5	1.11e5		35105	3114	inactive
CG17272 (GeneID 42465)	DRSC15211	4.35e5	63389		28752	6618	active
CG12567 (GeneID 3355094)	DRSC20845	1.09e5	3.35e5		3520	15332	inactive
Sirt7 (GeneID 43433)	DRSC14294	85772	1.04e5		1387	3235	inactive
Desat1 (GeneID 117369)	DRSC16668	47744	79655		2172	4947	inactive
CG34238 (GeneID 5740238)	DRSC09040	1.12e5	2.53e5		3284	10155	inactive
Ccdc85 (GeneID 33509)	DRSC00501	57891	30792		906	2859	inactive
nAChRalpha7 (GeneID 32928)	DRSC20078	1.16e5	2.43e5		4652	10741	inactive
nAChRalpha7 (GeneID 32928)	DRSC20081	1.09e5	1.70e5		4077	7413	inactive
CG31928 (GeneID 326175)	DRSC00293	88624	1.10e5		4256	4487	inactive
Npc2a (GeneID 33374)	DRSC00698	79234	73543		1928	1655	inactive
CG7888 (GeneID 39232)	DRSC10926	1.00e5	54244		5047	1937	inactive
CG30431 (GeneID 35549)	DRSC04902	1.75e5	94764		6336	3249	inactive
CG30431 (GeneID 35549)	DRSC04904	1.13e5	88759		2813	7162	inactive
CG31087 (GeneID 43062)	DRSC14253	4.87e5	84262		28579	933	inactive
SuUR (GeneID 45739)	DRSC11292	71981	70498	69858	5520	5031	inactive
kat80 (GeneID 32581)	DRSC20344	1.09e5	3.41e5		4020	11312	inactive
kat80 (GeneID 32581)	DRSC20345	86074	2.30e5		3400	8615	inactive
CG17029 (GeneID 39740)	DRSC10240	1.49e5			1957	4196	inactive
Crz (GeneID 41742)	DRSC16615	1.10e5	99141		3568	2933	inactive
CG32243 (GeneID 317935)	DRSC08105	1.52e5	2.11e5		4269	9564	inactive
CG18609 (GeneID 37158)	DRSC06775	95028	67575		2348	4680	inactive
glu (GeneID 35001)	DRSC03539	92117	46848		3649	2054	inactive
ITP (GeneID 37921)	DRSC04222	71395	45129		1658	4041	inactive
Ctl1 (GeneID 38523)	DRSC08303	84930	36967		1904	372	inactive
unc80 (GeneID 43324)	DRSC15329	69651	85176		2272	2499	inactive
CG46339 (GeneID 44359)	DRSC14136	91904	63611		2368	1645	inactive
CG32022 (GeneID 317826)	DRSC09678	35201	61285		4829	4369	inactive
CG2021 (GeneID 38229)	DRSC08546	81677	39590		2770	3619	inactive
WRNexo (GeneID 42208)	DRSC16278	1.30e5	1.26e5		4928	4749	inactive
CG13102 + Rcd-1r	DRSC03266	1.24e5	1.05e5		3236	7596	inactive
lncRNA:CR43314 (GeneID 12798160)	DRSC01216	5.92e5	2.76e5		33767	11779	inactive
Pgant9 (GeneID 246627)	DRSC05621	1.37e5	3.09e5		4133	11488	inactive
Pgant9 (GeneID 246627)	DRSC06584	95594	40883		2744	3152	inactive
Pgant9 (GeneID 246627)	DRSC07185	1.08e5	56377		3156	4631	inactive
Pgant9 (GeneID 246627)	DRSC07186	1.10e5	41395		2937	3223	inactive
Pgant9 (GeneID 246627)	DRSC07187	1.41e5	49323		4212	3682	inactive
Pgant9 (GeneID 246627)	DRSC07189	98204	48201		2778	3045	inactive
CG13001 (GeneID 32684)	DRSC19520	1.29e5	5.83e5	2.94e5	2224	5175	inactive
PolE1 (GeneID 42758)	DRSC16112	82151	65909		3991	2819	inactive
Rich (GeneID 40456)	DRSC11607	1.31e5	88630		4848	3476	inactive
Pdha (GeneID 31406)	DRSC18413	70465	1.59e5		1945	6108	inactive
sbb (GeneID 44027)	DRSC05723	88172	2.58e5		2899	10486	inactive
sbb (GeneID 44027)	DRSC07676	93281	33744		2859	2794	inactive
GCC185 (GeneID 41459)	DRSC15493	86758	1.02e5		3770	2637	inactive
CG7332 (GeneID 32885)	DRSC20038	1.13e5	99449		2598	2485	inactive
ValRS (GeneID 45783)	DRSC06864	1.24e5	56932		4593	800	inactive
CG4660 (GeneID 31542)	DRSC18378	63584	2.02e5		1320	7476	inactive
CG17097 (GeneID 34461)	DRSC02569	1.05e5	39064		2913	3197	inactive
Fer3HCH (GeneID 32260)	DRSC19892	1.13e5	3.96e5		3059	12642	inactive
RpS5b (GeneID 41807)	DRSC16173	77912	72775		2448	2652	inactive
MED14 (GeneID 38073)	DRSC08235	51565	36668		2752	1542	inactive
Kap3 (GeneID 32071)	DRSC19426	1.78e5	96904		4125	2569	inactive
CG17362 (GeneID 39545)	DRSC10267	96816			4235	2716	inactive
CG34393 (GeneID 33534)	DRSC00419	1.07e5	63213		2803	6455	inactive
CG34393 (GeneID 33534)	DRSC00710	1.31e5	64882		3237	6615	inactive
ssp5 (GeneID 41465)	DRSC14955	1.32e5	1.13e5		5440	4480	inactive
CG34398 (GeneID 5740462)	DRSC01052	9.17e5	5.06e5		45828	20482	inactive
CG34398 (GeneID 5740462)	DRSC02510	58002	19545		1468	2903	inactive
CG34398 (GeneID 5740462)	DRSC02511	98818	1.39e5		3048	4090	inactive
CG34398 (GeneID 5740462)	DRSC03228	73984	46626		1328	4352	inactive
Cdc37 (GeneID 38232)	DRSC08648	54852	39225		2193	3362	inactive
side-II (GeneID 3346206)	DRSC01427	1.43e5	3.02e5		4544	14725	inactive
side-II (GeneID 3346206)	DRSC01429	1.09e5	1.96e5		3540	9947	inactive
side-II (GeneID 3346206)	DRSC01913	1.22e5	89564		3523	7137	inactive
side-II (GeneID 3346206)	DRSC01932	1.50e5	6.11e5	83194	4028	34346	inactive
side-II (GeneID 3346206)	DRSC02480	2.00e5	93785		5105	8790	inactive
Erasp (GeneID 246448)	DRSC07111	97693	87493		4032	3648	inactive
LManI (GeneID 34436)	DRSC02838	85386	53197		2628	5354	inactive
CG15012 (GeneID 38529)	DRSC08465	1.15e5	74540		5152	2763	inactive
Hr51 (GeneID 36702)	DRSC06627	1.29e5	99424		3333	5675	inactive
Rpn9 (GeneID 42802)	DRSC16840	52251	62629		3108	2983	inactive

Part of the list above, reduced to “firefly Hh reporter signal, replicate 2”.
PolE1 (GeneID 42758) [DRSC16112]: 65909
Rich (GeneID 40456) [DRSC11607]: 88630
Pdha (GeneID 31406) [DRSC18413]: 1.59e5
sbb (GeneID 44027) [DRSC05723]: 2.58e5
sbb (GeneID 44027) [DRSC07676]: 33744
GCC185 (GeneID 41459) [DRSC15493]: 1.02e5
CG7332 (GeneID 32885) [DRSC20038]: 99449
ValRS (GeneID 45783) [DRSC06864]: 56932
CG4660 (GeneID 31542) [DRSC18378]: 2.02e5
CG17097 (GeneID 34461) [DRSC02569]: 39064
Fer3HCH (GeneID 32260) [DRSC19892]: 3.96e5
RpS5b (GeneID 41807) [DRSC16173]: 72775
